Data: PMC7519109
No constants are given. Whether binding was seen depends on the method and setting. In cells and extracts the contact can be indirect. Some entries that bind do so weakly or less than the wild type. Where a sequence is shown, tags or fusion partners need not be part of it.

The chains behind the UniProt entries cited, without tags or fusion partners. Residues count along the entry.
UniProt P37173, residues 23-567: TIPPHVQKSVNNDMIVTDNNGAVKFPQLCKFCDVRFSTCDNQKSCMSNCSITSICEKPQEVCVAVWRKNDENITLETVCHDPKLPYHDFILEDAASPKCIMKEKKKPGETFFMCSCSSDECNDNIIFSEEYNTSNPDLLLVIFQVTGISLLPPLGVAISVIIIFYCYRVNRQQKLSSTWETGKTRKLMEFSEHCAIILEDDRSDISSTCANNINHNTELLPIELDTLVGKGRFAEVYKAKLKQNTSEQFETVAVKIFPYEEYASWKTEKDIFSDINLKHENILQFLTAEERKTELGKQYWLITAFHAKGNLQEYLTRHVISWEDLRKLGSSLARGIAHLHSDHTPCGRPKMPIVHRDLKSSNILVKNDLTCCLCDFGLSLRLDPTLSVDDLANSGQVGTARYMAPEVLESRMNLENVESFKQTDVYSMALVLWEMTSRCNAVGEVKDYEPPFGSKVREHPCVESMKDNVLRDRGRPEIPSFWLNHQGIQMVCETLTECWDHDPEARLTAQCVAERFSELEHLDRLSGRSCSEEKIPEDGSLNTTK

Target: T1, FLAG-OTUD4 (human) (UniProt Q01804)
T1 sequence: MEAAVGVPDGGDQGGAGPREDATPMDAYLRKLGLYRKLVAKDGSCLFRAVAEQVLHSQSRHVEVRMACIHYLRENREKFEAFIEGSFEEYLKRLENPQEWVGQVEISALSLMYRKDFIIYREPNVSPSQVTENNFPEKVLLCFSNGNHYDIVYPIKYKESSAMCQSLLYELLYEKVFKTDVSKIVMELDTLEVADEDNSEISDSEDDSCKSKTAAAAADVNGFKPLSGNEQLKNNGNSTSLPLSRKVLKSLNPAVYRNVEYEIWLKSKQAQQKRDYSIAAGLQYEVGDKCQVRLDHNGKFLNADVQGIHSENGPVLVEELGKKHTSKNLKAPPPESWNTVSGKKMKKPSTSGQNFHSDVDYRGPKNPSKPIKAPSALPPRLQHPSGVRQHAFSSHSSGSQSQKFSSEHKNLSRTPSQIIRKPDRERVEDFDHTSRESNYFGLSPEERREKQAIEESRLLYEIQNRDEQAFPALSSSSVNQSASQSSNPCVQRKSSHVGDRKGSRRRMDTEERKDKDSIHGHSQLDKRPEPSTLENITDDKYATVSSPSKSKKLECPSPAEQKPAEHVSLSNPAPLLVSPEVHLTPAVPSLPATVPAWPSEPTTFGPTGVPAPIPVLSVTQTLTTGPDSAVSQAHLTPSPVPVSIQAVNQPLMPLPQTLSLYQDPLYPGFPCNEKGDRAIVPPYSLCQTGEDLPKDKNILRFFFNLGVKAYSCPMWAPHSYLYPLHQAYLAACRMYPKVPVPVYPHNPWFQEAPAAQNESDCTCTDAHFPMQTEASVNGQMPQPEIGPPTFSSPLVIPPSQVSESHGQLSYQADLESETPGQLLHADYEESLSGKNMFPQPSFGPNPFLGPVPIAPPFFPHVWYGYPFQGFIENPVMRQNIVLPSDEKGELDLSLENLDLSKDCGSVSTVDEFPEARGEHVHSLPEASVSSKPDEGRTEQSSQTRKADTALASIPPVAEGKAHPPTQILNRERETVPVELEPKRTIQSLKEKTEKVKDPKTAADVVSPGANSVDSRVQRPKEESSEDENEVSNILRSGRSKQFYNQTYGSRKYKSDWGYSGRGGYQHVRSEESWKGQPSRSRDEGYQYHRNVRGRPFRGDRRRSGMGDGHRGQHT
Experiment: co-IP; HEK293T cells co-transfected; lysed after 48 h in ELB (0.25 M NaCl, 0.5% NP-40, 50 mM HEPES pH 7.3); lysate incubated overnight with antibody (anti-TβRI or anti-OTUD4), protein A or G sepharose, three washes in ELB; Western blot

binding: binds
Substance: TGFβ receptor II (from UniProt P37173 23-567)
